Test: Percent change in body weight in STZ induced diabetic mouse model (Example 2)
Format: in vivo, mouse (C57Bl/6)
Settings: 50 μg/kg body weight SC for twenty eight days; FIG. 5
Method: C57Bl/6 female mice, 6-7 weeks old were used for the study and conditions were the same as for Example 1 above unless otherwise specified. Following acclimatization, mice were dosed intraperitoneally (IP) with 50 mg/kg STZ solubilized in 0.05 M sodium citrate buffer at a volume of 100 μl per mouse for five consecutive days. Blood Glucose levels were monitored on day 6 post STZ using Accu check glucose meter. Mice were grouped having average blood glucose levels of 200 mg/dL. There were three groups of ten mice each. Mice were dosed subcutaneously with Linear PanCyte (SEQ ID NO:6), PanCyte or vehicle for twenty-eight days.
Linear PanCyte and PanCyte were prepared in saline and administrated subcutaneously at a dose volume of 100 μl/mouse daily for twenty-eight days. Dosing solutions were prepared fresh every three days.

Row | Substance | Percent body weight change as compared to vehicle
1 | Asp^1-Arg^2-Val^3-Ser^4-Ile^5-His^6-Cys^7 [Linear-PanCyte] (DRVSIHC; linear) | No significant differences
2 | Asp^1-Arg^2-Val^3-Ser^4-Ile^5-His^6-Cys^7 [PanCyte] (DRVSIHC; cyclised Ser4-Cys7 linkage) | No significant differences
